PubChem BioAssay AID602196 | INSERM – 2012
Screen: 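Modifiers of cisplatin sensitivity in A549 cells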. Cells: human A549 lung cancer cells. Knock-down reagent: siRNA pair against human genes. Time to read-out: 48 h transfection before cisplatin; time from cisplatin to read-out not stated. Treatment: cisplatin at a dose killing half of control-siRNA cells; exact dose and duration not given. Measurement: 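Shift in cisplatin death relative to control siRNA, from -50 (all cells die) to +50 (no cells die); siRNAs harmful on their own scored 0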. Reading the numbers: two-siRNA summed score (-2 to +2): higher = both siRNAs protect from cisplatin killing; -2 means both sensitise. Rule for the call: 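Each siRNA scores 0 if harmful alone by LDH or WST-1, otherwise +1 if it reduces and -1 if it increases cisplatin killing; a gene is active when both siRNAs agree (sum +2 or -2)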. Calls: active = both siRNAs shift cisplatin killing the same way; inactive = no consistent shift, or siRNA harmful alone.
The deposit covers about 23,000 reagents; below is a random part of them. 455 of all reagents (2%) count as active. 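Active includes both protection and sensitisation; some change values fall well beyond the stated -50 to +50 range.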 Reagents against one gene are numbered here. Further read-outs or replicates are left out here. No sequences are given here. Not stated in the record: the amount of reagent.

two-siRNA summed score (-2 to +2), by gene and reagent
SLC66A1: #1 0 inactive
CCDC181: #1 0 inactive
LMO2: #1 -1 inactive
REG1B: #1 0 inactive; #2 0 inactive
TRIB2: #1 0 inactive
LOC401119: #1 0 inactive
LOC389850: #1 1 inactive
TAS2R14: #1 0 inactive
IL12B: #1 0 inactive
ACAN: #1 1 inactive
MPZL3: #1 0 inactive
RGS4: #1 0 inactive
IQSEC2: #1 0 inactive
LOC153918: #1 0 inactive
SLC25A18: #1 0 inactive
GFRAL: #1 -1 inactive
LOC388282: #1 0 inactive
GOLGA6EP: #1 0 inactive
TRO: #1 0 inactive
LOC401056: #1 0 inactive
PHLDB1: #1 -1 inactive
SLC30A5: #1 0 inactive
LOC440397: #1 1 inactive
LOC441493 (retired record): #1 0 inactive
CAMTA1: #1 0 inactive
MIR22HG: #1 0 inactive
LOC344227: #1 -1 inactive
CCZ1P-OR7E38P: #1 0 inactive
RABAC1: #1 0 inactive
LOC400479: #1 0 inactive
RFC2: #1 0 inactive
CRYGB: #1 1 inactive
TPD52L1: #1 0 inactive
LOC388255: #1 0 inactive

Entries listed so far whose target name starts with I or i (2):
two-siRNA summed score (-2 to +2), by gene and reagent
IL12B: #1 0 inactive
IQSEC2: #1 0 inactive

More records follow:
two-siRNA summed score (-2 to +2), by gene and reagent
PWWP3A: #1 0 inactive
LMLN: #1 0 inactive
AXIN2: #1 0 inactive
WNT2B: #1 0 inactive
RNF113A: #1 -1 inactive
SLFNL1: #1 0 inactive
ATOH1: #1 1 inactive
GOT2: #1 -1 inactive
RANBP1P1: #1 1 inactive
LOC388429: #1 1 inactive
LOC143941: #1 -1 inactive
ENTR1: #1 0 inactive
CYP4F8: #1 0 inactive
LILRA2: #1 1 inactive
SEC23A: #1 2 active
AKAP14: #1 1 inactive
RUBCNL: #1 0 inactive
ASCL1: #1 0 inactive
LOC400523: #1 0 inactive
MRPL51: #1 0 inactive
ZNF776: #1 1 inactive
LOC441480: #1 0 inactive
